Data published in PubChem BioAssay AID504467 (National Center for Advancing Translational Sciences (NCATS), 2011).
In all, about 330,000 compounds went through this assay and about 7,700 (2.3%) were called active. Inconclusive results, whose numbers are uncertain, are shown with a selection of clear calls. The call rests on the fitted dose curve; in most records, active means well fitted inhibition curve with a large enough effect; inconclusive means small, poorly fitted or top-dose-only effect, or effect the other way; inactive means flat fitted curve, though single readings scatter. Potencies beside an inconclusive call are fits to weak or partial responses and may not hold up.

assay: qHTS screen for small molecules that inhibit ELG1-dependent DNA repair in human embryonic kidney (HEK293T) cells expressing luciferase-tagged ELG1; details: HEK293T ELG1-luciferase reporter, luminescence, 16 h, DNA damage induced by 5-fluorouridine; series mostly up to 46.1 µM; further: nearly all actives have a fitted effect of over 55% in size
Outline: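 5-Fluorouridine DNA damage + compound/DMSO, 2,000 cells/well, 16 h, 37 °C/5% CO2. ONE-Glo, 30 min RT, luminescence. Readout = decrease in reporter signal.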
Potency means the concentration at half of the fitted maximal effect.

SMILES | Potency
CCOc1ccccc1NC(=O)CN(C)S(=O)(=O)c1ccc2[nH]c(=O)oc2c1 | inconclusive: 20.6 µM [activator, partial curve, poor fit]
CCOc1ccc(Nc2nnc(SCc3nc4ccccc4c(=O)[nH]3)s2)cc1 | inactive
CC(/C=N/n1c(-c2cccnc2)n[nH]c1=S)=C\c1ccccc1 | inconclusive: 35.5 µM [inhibitor, single point]
CCc1ccc(C2=CC(c3cc(Br)ccc3F)n3ncnc3N2)cc1 (configuration not stated) | inconclusive: 6.51 µM [inhibitor, single point]
CCc1ccccc1NC(=O)COC(=O)C1C2CC3OC(=O)C1C3C2 (configuration not stated) | inactive
COc1ccc(-c2noc(-c3ccccc3C(=O)Nc3cccnc3)n2)cc1OC | inconclusive: 18.4 µM [inhibitor, single point]
Cc1ccc(C(=O)NCC(=O)N(C)CC(=O)Nc2ccccc2Br)s1 | inactive
COc1cccc(C(=O)NCCSCc2ccccc2Cl)c1 | inconclusive: 18.3 µM [activator, partial curve, poor fit]
CC(C)(C)CC(=O)Nc1ccc(-c2cn3cccnc3n2)cc1 | inconclusive: 10.3 µM [activator, partial curve]
COCCn1c(C)cc(C(=O)COC(=O)c2cc3c(s2)CCC3)c1C | inconclusive: 16.4 µM [activator, single point]
O=[N+]([O-])c1ccc(/C=N/Nc2nc(N3CCCCCC3)nc(N3CCCCCC3)n2)o1 | active: 23.1 µM
COc1ccc(OCC(=O)NCCCCCCNC(=O)COc2ccc(OC)cc2)cc1 | inactive
CN(C)/C=N/C(=S)Nc1ccccc1F | inconclusive: 16.4 µM [activator, partial curve]
COCc1nnc(NC(=O)c2ccccc2Oc2ccccc2)s1 | inactive
O=C(NCc1cccs1)C1CCC(CNS(=O)(=O)c2ccc(Br)s2)CC1 (configuration not stated) | inconclusive: 18.4 µM [inhibitor, single point]
CSc1ncccc1C(=O)NCC(c1ccco1)N1CCCCC1 (configuration not stated) | inactive
COc1ccc(NC(C(=O)Nc2cccc(C(C)=O)c2)c2ccccc2)cc1 (configuration not stated) | inconclusive: 23.1 µM [activator, single point]
COc1cc(/C=C/C(=O)N2CC(C)OC(C)C2)cc(OC)c1OC (configuration not stated) | inactive
CCOC(=O)c1ccc(NC(=O)C(CC)CC)cc1 | inconclusive: 16.4 µM [activator, partial curve]
O=C(Nc1ccccc1Cl)N1CCN(c2ccc3nnc(-c4ccccc4)n3n2)CC1 | active: 13 µM
C/C(N)=C(/C#N)C(=O)CSc1nnc(-c2ccccc2Br)o1 | inconclusive: 5.8 µM [activator, partial curve]
CCCCCOC(=O)c1cc(=O)[nH]c2ccccc12 | inconclusive: 25.9 µM [activator, partial curve]
Cc1ccc([C@@H]2[C@@H]3C(=O)N(C)C(=O)[C@@H]3[C@]3(C)C(=O)N(CCO)CC(=O)N23)o1 | inconclusive: 0.0052 µM [inhibitor, full curve, poor fit]
CC(=O)COc1ccc2c3c(c(=O)oc2c1)CCCC3 | inconclusive: 29.1 µM [activator, single point]

SMILES | Potency
CC(C(=O)Nc1ccccc1)c1ccc(-c2ccccc2)c(F)c1 (configuration not stated) | inconclusive: 2.59 µM [inhibitor, full curve]
O=c1[nH]c(-c2ccc(F)cc2)nc2c1sc(=S)n2-c1ccccc1 | inconclusive: 16.4 µM [inhibitor, partial curve]
COc1ccc(C(=O)CN2C(=O)NC3(CCCc4ccccc43)C2=O)c(OC)c1 (configuration not stated) | inactive
Fc1ccc(-c2nn(-c3ccccc3)cc2CNCc2ccccc2)cc1 | inconclusive: 25.9 µM [inhibitor, single point]
Cn1cc(CN2CCC(n3nccc3NC(=O)c3ccccc3Cl)CC2)c2ccccc21 | inactive
COC(=O)C1=C(C(=O)OC)SC2(S1)C(C(=O)OC)=C(C(=O)OC)SC1=C2c2cccc(C)c2NC1(C)C | inactive
Clc1nc(-c2ccccn2)nc2scc(-c3ccccc3)c12 | inconclusive: 0.58 µM [activator, full curve]
CCN(CC)CCN1C(=O)C(=O)/C(=C(/O)c2ccc(S(=O)(=O)N3CCOCC3)cc2)C1c1ccc(C)cc1 (configuration not stated) | inactive
COC(=O)CSc1nnc(-c2ccco2)o1 | inconclusive: 7.31 µM [activator, partial curve, poor fit]
Oc1ccccc1-c1nnc(COc2ccc(Cl)cc2Cl)o1 | inconclusive: 16.4 µM [activator, partial curve]
Cn1c(SCC(=O)Nc2ccccc2C(F)(F)F)nc2c(c1=O)SCC2 | inactive
CC(C)Cc1ccc(S(=O)(=O)N2CCCC2)cc1 | inactive
Cc1cccc(C(=O)OCc2cncs2)c1 | inconclusive: 18.3 µM [activator, single point]
COc1cc2nc(CN3CCN(S(=O)(=O)c4ccccc4C(F)(F)F)CC3)[nH]c(=O)c2cc1OC | inconclusive: 16.4 µM [inhibitor, partial curve]
CCOC(=O)c1c(C(F)(F)F)cc(-c2ccc(F)cc2)nc1C | inconclusive: 32.6 µM [activator, partial curve, poor fit]
O=C(Cc1ccccc1)NC(=S)Nc1ccc2oc(-c3ccccc3F)nc2c1 | inconclusive: 18.4 µM [activator, partial curve]
CN(CC(=O)Nc1ccc(C#N)cc1)Cc1ccc(Cl)cc1Cl | inconclusive: 13 µM [inhibitor, partial curve, poor fit]
CC(C)CN(C(=O)COC(=O)Cc1c[nH]c2ccccc12)c1c(N)n(Cc2ccccc2)c(=O)[nH]c1=O | inactive
N#CC1=C(N)Oc2cc(N)ccc2C1c1ccccc1F (configuration not stated) | inactive
Cc1cc(Nc2ccc(C)c(C)c2)c2ccccc2n1 | inactive
O=C(O)COc1ccccc1/C=N/NC(=O)CSc1nnc(-c2ccc(Cl)cc2)n1C1CCCCC1 | inactive
COC(=O)c1ccc(OCC2c3cc(OC)c(OC)cc3CCN2C(=O)C2CC2)cc1 (configuration not stated) | inconclusive: 20.6 µM [inhibitor, single point]
Cc1nnc(SCC(=O)N(Cc2ccccc2)C(C)(C)C)[nH]c1=O | inactive
COc1cc(NC(=O)SC2=NCCS2)cc(OC)c1 | inactive

SMILES | Potency
N#Cc1ccccc1Oc1ccc(S(=O)(=O)N2CCCCC2)cn1 | inconclusive: 16.4 µM [activator, partial curve, poor fit]
O=C(c1cn(-c2ccccc2)nc1-c1ccc(F)cc1)N1CCCCC1 | inactive
CC1=NN(c2ccccc2)C(=O)/C1=C/c1cccc(C)c1 | inactive
Cc1ccc(C)c(-c2nnc(NC(=O)c3ccc([N+](=O)[O-])o3)o2)c1 | inconclusive: 4.11 µM [inhibitor, single point]
COc1ccc(C2=NN(CN3C(=O)C(=O)c4ccccc43)C(c3ccc(C)cc3)C2)cc1 (configuration not stated) | inconclusive: 23.1 µM [activator, partial curve]
CCOc1ccc2nc(Cl)c(C3CC(c4ccco4)=NN3S(C)(=O)=O)cc2c1 (configuration not stated) | inconclusive: 23.1 µM [inhibitor, single point]
COc1ccccc1NC(=O)N1CCOCC1 | inconclusive: 16.4 µM [activator, partial curve, poor fit]
CC1CCC(NC(=O)CN2C(=O)NC3(CCCCC3C)C2=O)CC1 (configuration not stated) | inactive
COc1ccc(CN(Cc2cc3ccc(C)cc3[nH]c2=O)Cc2nnnn2C2CCCC2)cc1 | inconclusive: 29.1 µM [inhibitor, single point]
Cc1nc2c3cc(F)ccc3n(Cc3ccccc3)c2s1 | inconclusive: 29.1 µM [activator, single point]
CCCCCC(=O)N/N=C(\C)c1ccccn1 | inconclusive: 20.6 µM [activator, single point]
COc1ccc(N2CCN(CCNC(=O)c3ccc4nc5ccccc5c(=O)n4c3)CC2)cc1 | inconclusive: 23.1 µM [activator, single point]
Cn1cccc1/C=C1\SC(=S)N(NC(=O)c2ccc(F)cc2)C1=O | inconclusive: 2.91 µM [activator, single point]
C[C@H](C[C@H](O)[C@H]1OC1(C)C)C1=C2C[C@H](O)C3[C@@]4(C)CCC(=O)C(C)(C)C4CC[C@]3(C)[C@@]2(C)CC1 (some centres not stated) | inactive
CC12CCC(=O)N1C(C(=O)NCCN1C(=O)S/C(=C\c3ccccc3Cl)C1=O)CS2 (configuration not stated) | inactive
COc1ccc(NS(=O)(=O)c2ccc3c(c2)N(C(C)=O)CC(C)S3)c(OC)c1 (configuration not stated) | inconclusive: 20.6 µM [inhibitor, single point]
CC(=O)N1CCc2c(sc(NC(=O)c3ccc4c(c3)OCCO4)c2C#N)C1 | inconclusive: 29.1 µM [activator, single point]
COCc1cc(C)nc(SCc2nc3ccccc3c(=O)[nH]2)c1C#N | inactive
COc1ccccc1/C=C/C(=O)NCC(=O)N/N=C/c1cc(Br)ccc1OC | inconclusive: 23.1 µM [inhibitor, single point]
S=C(NCCNCc1ccccc1)NC1CCCCC1 | inactive
COc1ccc(CCC(=O)Nc2ccc(Cl)c(S(=O)(=O)N3CCCC3)c2)cc1 | active: 4.61 µM
CCN(CC)S(=O)(=O)c1ccc(S(=O)(=O)N2CCC(N3CCCCC3)CC2)cc1 | inactive
CC(C)(C)c1ccc(N2C(=N)SCC2=O)cc1 | inactive
COc1cc(-c2nc(C)c(C(C)=O)n2O)ccc1OCC(=O)Nc1ccc(Cl)cc1 | inconclusive: 18.3 µM [inhibitor, single point]

Reformatted in markdown: part of the list above

| SMILES | Potency |
| --- | --- |
| O=C(c1cn(-c2ccccc2)nc1-c1ccc(F)cc1)N1CCCCC1 | inactive |
| COc1ccc(C2=NN(CN3C(=O)C(=O)c4ccccc43)C(c3ccc(C)cc3)C2)cc1 (configuration not stated) | inconclusive: 23.1 µM [activator, partial curve] |
| Cn1cccc1/C=C1\SC(=S)N(NC(=O)c2ccc(F)cc2)C1=O | inconclusive: 2.91 µM [activator, single point] |
| COc1ccc(NS(=O)(=O)c2ccc3c(c2)N(C(C)=O)CC(C)S3)c(OC)c1 (configuration not stated) | inconclusive: 20.6 µM [inhibitor, single point] |
| COCc1cc(C)nc(SCc2nc3ccccc3c(=O)[nH]2)c1C#N | inactive |
